This note sets out measurements from US5919649.

The exact form of at least one protein or probe is not confirmed. Results from cells or extracts need not show a direct contact.

The target of this data set is CREB beta-galactosidase fusion (lambda gt11 phage G1, placental cDNA) (Homo sapiens) (UniProt P16220). Briefly: binding assay. To be noted: protein in a lysate after overexpression.

On to “GATCCGGCTGACGTCATCAAGCTA (double strand) [CRE probe]”, for which the binding result (expressed protein on nitrocellulose probed with labelled duplex, label: radioactive) is on record as “binds”.
For “AAAGCCAGAGGTGTCTGACGTCATGCTTTATAACATCCTCTTGATTAGCTA (double strand) [CRE UV-crosslinking probe]”, the binding result (bromodeoxyuridine incorporated, UV crosslinking of lysogen extract, competed by unlabelled CRE, label: radioactive body label) was “binds”.
